Laboratory results as given in publication doi:10.1101/2023.01.18.524603.
These are yes or no findings as the source states them, for the method shown. Some binding calls cover weakened binding; strength is not graded here. For part of these data: Sequences can lack the tags named with a protein.

B1: Mei4N (residues 1–43 of yeast Mei4) (domain or fragment, UniProt P29467 1-43)
chain: MSRGKLEDMEQKETSEVDWIICFALIQSRNPTLWKRALSRKKG
B2: Mei4N with a C-terminal ybbR tag (without the fluorophore) (domain or fragment, UniProt P29467 1-43)
chain: MSRGKLEDMEQKETSEVDWIICFALIQSRNPTLWKRALSRKKG
B3: mMEI4N (mouse MEI4 residues 1–42) (domain or fragment, UniProt Q8BRM6 1-42)
chain: MDIQPWYLKTSKLALALAIIHSKPADRSSREYTEYLASLVTQ
B4: Rec114C (residues 375–428 of yeast Rec114) (domain or fragment, UniProt P32841 375-428)
chain: EASPSEGLTIRVKNVNRNASRKISKRLIKEKLKDEEFMKWVNKVETVLNKMFEK
B5: Mei4_(13–43) (domain or fragment, UniProt P29467 13-43)
chain: ETSEVDWIICFALIQSRNPTLWKRALSRKKG
B6: Mei4_(1–90) (domain or fragment, UniProt P29467 1-90)
chain: MSRGKLEDMEQKETSEVDWIICFALIQSRNPTLWKRALSRKKGDVEDVGALKSEKNLKINPRENSKHIYKWVAPFENGFLNNKSLFAHLE

Legend:
[1] = molecular target: T1, Rec114_(388–428) (Saccharomyces cerevisiae) (UniProt P32841); assay: co-purification after co-expression (cobalt affinity, SEC); co-expressed in E. coli BL21(DE3) from a pETDuet-based vector with a 6XHis-SUMO tag; cobalt resin in 25 mM HEPES-NaOH pH 7.4, 500 mM NaCl; tag cleaved with Ulp1; Superdex 200 Increase in 25 mM HEPES-NaOH pH 7.4, 100 mM NaCl; fractions checked by SDS-PAGE
T1 sequence: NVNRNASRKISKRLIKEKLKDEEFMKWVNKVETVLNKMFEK

[2] = molecular target: T2, Rec114_(388–428) K403A/K407A (Saccharomyces cerevisiae) (UniProt P32841); assay: as above
T2 sequence: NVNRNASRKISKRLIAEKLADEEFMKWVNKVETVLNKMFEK

[3] = molecular target: T3, Rec114_(388–428) K399A/R400A (Saccharomyces cerevisiae) (UniProt P32841); assay: as above
T3 sequence: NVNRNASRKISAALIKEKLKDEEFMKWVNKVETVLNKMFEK

[4] = molecular target: T4, Rec114C (residues 375–428 of yeast Rec114) (Saccharomyces cerevisiae) (UniProt P32841); assay: as above
T4 sequence: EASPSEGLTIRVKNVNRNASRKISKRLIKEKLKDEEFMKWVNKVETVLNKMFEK

[5] = molecular target: T5, Rec114_(388–428) K417A/K424A (Saccharomyces cerevisiae) (UniProt P32841); assay: as above
T5 sequence: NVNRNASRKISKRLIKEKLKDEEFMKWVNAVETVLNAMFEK

[6] = molecular target: T6, Rec114_(388–428) R395A/K396A (Saccharomyces cerevisiae) (UniProt P32841); assay: as above
T6 sequence: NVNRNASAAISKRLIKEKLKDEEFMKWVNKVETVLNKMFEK

[7] = molecular target: T1, Rec114_(388–428) (Saccharomyces cerevisiae); assay: NMR (HSQC spectra, backbone assignment) of the purified complex; 15N or 15N-13C labelled co-purified complex; 25 mM HEPES-NaOH pH 7.4, 100 mM NaCl, 0.5 mM EDTA, 1 mM TCEP, 25 °C; Rec114(388–428)–Mei4(13–43) assigned in 25 mM NaHPO4 pH 6.1, 100 mM NaCl; both purified
[8] = molecular target: T4, Rec114C (residues 375–428 of yeast Rec114) (Saccharomyces cerevisiae); assay: as above
[9] = molecular target: T7, mREC114C (mouse REC114 residues 203–259) (mouse) (UniProt Q9CWH4); assay: co-purification after co-expression (cobalt affinity, SEC); co-expressed in E. coli BL21(DE3) from a pETDuet-based vector with a 6XHis-SUMO tag; cobalt resin in 25 mM HEPES-NaOH pH 7.4, 500 mM NaCl; tag cleaved with Ulp1; Superdex 200 Increase in 25 mM HEPES-NaOH pH 7.4, 100 mM NaCl; fractions checked by SDS-PAGE
T7 sequence: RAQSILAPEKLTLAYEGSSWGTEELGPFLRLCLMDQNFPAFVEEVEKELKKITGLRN

[10] = molecular target: T8, Rec114_(325–428) (Saccharomyces cerevisiae) (UniProt P32841); assay: as above
T8 sequence: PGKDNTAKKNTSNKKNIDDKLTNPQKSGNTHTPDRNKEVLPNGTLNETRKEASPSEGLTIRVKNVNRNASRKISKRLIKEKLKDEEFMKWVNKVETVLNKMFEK

Binder | binding [1] | binding [7] | binding [8] | also measured
B1 | binds | binds | binds | binding [2]: binds; binding [3]: binds; binding [4]: binds; binding [5]: binds; binding [6]: binds
B2 |  |  | binds | 
B3 |  |  |  | binding [9]: binds
B4 |  |  | binds | 
B5 | binds | binds | binds | 
B6 |  |  |  | binding [10]: binds
